Data on 8 molecules can be found in paper PMC7067850, “Identification of highly potent and selective inhibitor, TIPTP, of the p22phox-Rubicon axis as a therapeutic agent for rheumatoid arthritis” (Scientific Reports, 2020).

Protein sequences, listed by entry. Tags and fused reporters are not part of them. Residues count along the entry.
UniProt Q9QUK6, residues 26-835: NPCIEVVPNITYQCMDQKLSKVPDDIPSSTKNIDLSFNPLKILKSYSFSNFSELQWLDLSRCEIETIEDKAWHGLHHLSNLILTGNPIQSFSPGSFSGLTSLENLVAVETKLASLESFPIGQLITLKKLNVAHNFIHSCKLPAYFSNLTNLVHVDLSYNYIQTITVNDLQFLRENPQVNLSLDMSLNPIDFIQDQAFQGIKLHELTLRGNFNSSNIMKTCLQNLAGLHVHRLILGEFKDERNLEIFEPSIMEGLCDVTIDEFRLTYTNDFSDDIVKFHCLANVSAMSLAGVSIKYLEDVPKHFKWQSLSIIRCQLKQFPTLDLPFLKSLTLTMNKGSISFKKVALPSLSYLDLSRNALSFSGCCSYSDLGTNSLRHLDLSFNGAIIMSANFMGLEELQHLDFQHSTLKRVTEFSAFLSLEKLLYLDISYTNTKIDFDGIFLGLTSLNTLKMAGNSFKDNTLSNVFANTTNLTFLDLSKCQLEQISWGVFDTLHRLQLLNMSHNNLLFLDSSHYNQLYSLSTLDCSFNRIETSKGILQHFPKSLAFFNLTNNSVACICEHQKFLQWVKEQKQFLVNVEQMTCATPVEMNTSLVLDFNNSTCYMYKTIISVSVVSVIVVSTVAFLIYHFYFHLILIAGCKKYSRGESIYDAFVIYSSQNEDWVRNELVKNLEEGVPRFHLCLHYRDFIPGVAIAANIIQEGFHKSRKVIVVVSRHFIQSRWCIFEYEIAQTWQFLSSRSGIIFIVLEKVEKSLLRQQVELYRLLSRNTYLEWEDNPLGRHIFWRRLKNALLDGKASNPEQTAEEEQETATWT

No constants are given. Whether binding was seen depends on the method and setting. In cells and extracts the contact can be indirect. Some results given as binding are weak or reduced against the parent protein; the word gives no strength.

The chains are these.
T1: p22phox subunit of NADPH oxidase (mouse, endogenous) (mouse (endogenous in synoviocytes of CIA mice, BMDMs, Raw264.7)) (UniProt Q61462)
T1 sequence: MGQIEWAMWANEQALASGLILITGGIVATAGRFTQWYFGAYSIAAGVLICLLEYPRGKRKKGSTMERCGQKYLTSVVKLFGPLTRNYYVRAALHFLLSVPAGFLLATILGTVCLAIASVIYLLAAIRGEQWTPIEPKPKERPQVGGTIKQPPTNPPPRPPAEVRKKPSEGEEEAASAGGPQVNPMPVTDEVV

T2: p22phox (human, endogenous) (human (endogenous in monocytes and in synoviocytes of RA patients)) (UniProt P13498)
T2 sequence: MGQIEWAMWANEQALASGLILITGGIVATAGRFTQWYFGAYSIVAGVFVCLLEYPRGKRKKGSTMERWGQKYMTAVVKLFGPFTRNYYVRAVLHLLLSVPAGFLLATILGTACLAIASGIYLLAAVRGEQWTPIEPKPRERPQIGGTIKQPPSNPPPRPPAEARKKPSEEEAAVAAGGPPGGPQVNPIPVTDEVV

B1: NOX2/gp91phox (mouse, endogenous) (protein, UniProt Q61093 1-570)
chain: MGNWAVNEGLSIFVILVWLGLNVFLFINYYKVYDDGPKYNYTRKLLGSALALARAPAACLNFNCMLILLPVCRNLLSFLRGSSACCSTRIRRQLDRNLTFHKMVAWMIALHTAIHTIAHLFNVEWCVNARVGISDRYSIALSDIGDNENEEYLNFAREKIKNPEGGLYVAVTRLAGITGIVITLCLILIITSSTKTIRRSYFEVFWYTHHLFVIFFIGLAIHGAERIVRGQTAESLEEHNLDICADKIEEWGKIKECPVPKFAGNPPMTWKWIVGPMFLYLCERLVRFWRSQQKVVITKVVTHPFKTIELQMKKKGFKMEVGQYIFVKCPKVSKLEWHPFTLTSAPEEDFFSIHIRIVGDWTEGLFNACGCDKQEFQDAWKLPKIAVDGPFGTASEDVFSYEVVMLVGAGIGVTPFASILKSVWYKYCDNATSLKLKKIYFYWLCRDTHAFEWFADLLQLLETQMQERNNANFLSYNIYLTGWDESQANHFAVHHDEEKDVITGLKQKTLYGRPNWDNEFKTIASEHPNTTIGVFLCGPEALAETLSKQSISNSESGPRGVHFIFNKENF
B2: NOX4 (mouse, endogenous) (protein, UniProt Q9JHI8 1-578)
chain: MAVSWRSWLANEGVKHLCLLIWLSLNVLLFWKTFLLYNQGPEYYYIHQMLGLGLCLSRASASVLNLNCSLILLPMCRTVLAYLRGSQKVPSRRTRRLLDKSKTLHITCGVTICIFSGVHVAAHLVNALNFSVNYSEDFLELNAARYQNEDPRKLLFTTIPGLTGVCMVVVLFLMVTASTYAIRVSNYDIFWYTHNLFFVFYMLLLLHVSGGLLKYQTNVDTHPPGCISLNQTSSQNMSIPDYVSEHFHGSLPRGFSKLEDRYQKTLVKICLEEPKFQAHFPQTWIWISGPLCLYCAERLYRCIRSNKPVTIISVINHPSDVMELRMIKENFKARPGQYIILHCPSVSALENHPFTLTMCPTETKATFGVHFKVVGDWTERFRDLLLPPSSQDSEILPFIHSRNYPKLYIDGPFGSPFEESLNYEVSLCVAGGIGVTPFASILNTLLDDWKPYKLRRLYFIWVCRDIQSFQWFADLLCVLHNKFWQENRPDFVNIQLYLSQTDGIQKIIGEKYHTLNSRLFIGRPRWKLLFDEIAKCNRGKTVGVFCCGPSSISKTLHSLSNRNNSYGTKFEYNKESFS
B3: Run/cysteine-rich-domain-containing Beclin1-interacting autophagy protein (Rubicon) (mouse, endogenous) (protein, UniProt Q80U62 1-956)
chain: MRPEGAGMDLGGGDGERLLEKSRREHWQLLGNLKTTVEGLVSANCPNVWSKYGGLERLCRDMQNILYHGLIHDQVCCRQADYWQFVKDIRWLSPHSALHVEKFISLHESDQSDTDSVSERAVAELWLQHSLQCHCLSAQLRPLLGDRQYIRKFYTETAFLLSDAHVTAMLQCLEAVEQNNPRLLAQIDASMFARKQESPLLVTKSQSLTALPGSTYTPPASYAQHSYFGSSSSLQSMPQSSHSSERRSTSFSLSGPSWQPQEDRECLSPAETQTTPAPLPSDSTLAQDSPLTAQEMSDSTLTSPLEASWVSSQNDSPSDVSEGPEYLAIGNPAPHGRTASCESHSSNGESSSSHLFSSSSSQKLESAASSLGDQEEGRQSQAGSVLRRSSFSEGQTAPVASGTKKSHIRSHSDTNIASRGAAGGPRNITIIVEDPIAEGGQYLCSGEGMFRRPSEGQSLISYLSEQDFGSCADLEKENAHFSISESLIAAIELMKCNMMSQCLEEEEVEEEDSDREIQELKQKIRLRRQQIRTKNLLPAYRETENGSFRVTSSSSQFSSRDSTQLSESGSAEDADDLEIQDADIRRSAVSNGKSSFSQNLSHCFLHSTSAEAVAMGLLKQFEGMQLPAASELEWLVPEHDAPQKLLPIPDSLPISPDDGQHADIYKLRIRVRGNLEWAPPRPQIIFNVHPAPTRKIAVAKQNYRCAGCGIRTDPDYIKRLRYCEYLGKYFCQCCHENAQMVVPSRILRKWDFSKYYVSNFSKDLLLKIWNDPLFNVQDINSALYRKVKLLNQVRLLRVQLYHMKNMFKTCRLAKELLDSFDVVPGHLTEDLHLYSLSDLTATKKGELGPRLAELTRAGAAHVERCMLCQAKGFICEFCQNEEDVIFPFELHKCRTCEECKACYHKTCFKSGRCPRCERLQARRELLAKQSLESYLSDYEEEPTEALALEATVLETT
B4: TRAF6 (mouse, endogenous) (protein, UniProt P70196 1-530)
chain: MSLLNCENSCGSSQSSSDCCAAMAASCSAAVKDDSVSGSASTGNLSSSFMEEIQGYDVEFDPPLESKYECPICLMALREAVQTPCGHRFCKACIIKSIRDAGHKCPVDNEILLENQLFPDNFAKREILSLTVKCPNKGCLQKMELRHLEDHQVHCEFALVNCPQCQRPFQKCQVNTHIIEDCPRRQVSCVNCAVSMAYEEKEIHDQSCPLANIICEYCGTILIREQMPNHYDLDCPTAPIPCTFSVFGCHEKMQRNHLARHLQENTQLHMRLLAQAVHNVNLALRPCDAASPSRGCRPEDPNYEETIKQLESRLVRQDHQIRELTAKMETQSMYVGELKRTIRTLEDKVAEMEAQQCNGIYIWKIGNFGMHLKSQEEERPVVIHSPGFYTGRPGYKLCMRLHLQLPTAQRCANYISLFVHTMQGEYDSHLPWPFQGTIRLTILDQSEALIRQNHEEVMDAKPELLAFQRPTIPRNPKGFGYVTFMHLEALRQGTFIKDDTLLVRCEVSTRFDMGGLRKEGFQPRSTDAGV
B5: NOX2 (human, endogenous) (protein, UniProt P04839 1-570)
chain: MGNWAVNEGLSIFVILVWLGLNVFLFVWYYRVYDIPPKFFYTRKLLGSALALARAPAACLNFNCMLILLPVCRNLLSFLRGSSACCSTRVRRQLDRNLTFHKMVAWMIALHSAIHTIAHLFNVEWCVNARVNNSDPYSVALSELGDRQNESYLNFARKRIKNPEGGLYLAVTLLAGITGVVITLCLILIITSSTKTIRRSYFEVFWYTHHLFVIFFIGLAIHGAERIVRGQTAESLAVHNITVCEQKISEWGKIKECPIPQFAGNPPMTWKWIVGPMFLYLCERLVRFWRSQQKVVITKVVTHPFKTIELQMKKKGFKMEVGQYIFVKCPKVSKLEWHPFTLTSAPEEDFFSIHIRIVGDWTEGLFNACGCDKQEFQDAWKLPKIAVDGPFGTASEDVFSYEVVMLVGAGIGVTPFASILKSVWYKYCNNATNLKLKKIYFYWLCRDTHAFEWFADLLQLLESQMQERNNAGFLSYNIYLTGWDESQANHFAVHHDEEKDVITGLKQKTLYGRPNWDNEFKTIASQHPNTRIGVFLCGPEALAETLSKQSISNSESGPRGVHFIFNKENF
B6: NOX4 (human, endogenous) (protein, UniProt Q9NPH5 1-578)
chain: MAVSWRSWLANEGVKHLCLFIWLSMNVLLFWKTFLLYNQGPEYHYLHQMLGLGLCLSRASASVLNLNCSLILLPMCRTLLAYLRGSQKVPSRRTRRLLDKSRTFHITCGVTICIFSGVHVAAHLVNALNFSVNYSEDFVELNAARYRDEDPRKLLFTTVPGLTGVCMVVVLFLMITASTYAIRVSNYDIFWYTHNLFFVFYMLLTLHVSGGLLKYQTNLDTHPPGCISLNRTSSQNISLPEYFSEHFHEPFPEGFSKPAEFTQHKFVKICMEEPRFQANFPQTWLWISGPLCLYCAERLYRYIRSNKPVTIISVMSHPSDVMEIRMVKENFKARPGQYITLHCPSVSALENHPFTLTMCPTETKATFGVHLKIVGDWTERFRDLLLPPSSQDSEILPFIQSRNYPKLYIDGPFGSPFEESLNYEVSLCVAGGIGVTPFASILNTLLDDWKPYKLRRLYFIWVCRDIQSFRWFADLLCMLHNKFWQENRPDYVNIQLYLSQTDGIQKIIGEKYHALNSRLFIGRPRWKLLFDEIAKYNRGKTVGVFCCGPNSLSKTLHKLSNQNNSYGTRFEYNKESFS
B7: NOX5 (human, endogenous) (protein, UniProt Q96PH1 1-765)
chain: MNTSGDPAQTGPEGCRGTMSAEEDARWLRWVTQQFKTIAGEDGEISLQEFKAALHVKESFFAERFFALFDSDRSGTITLQELQEALTLLIHGSPMDKLKFLFQVYDIDVCARQGASAGTEWGAGAGPHWASSPLGTGSGSIDPDELRTVLQSCLRESAISLPDEKLDQLTLALFESADADGNGAITFEELRDELQRFPGVMENLTISAAHWLTAPAPRPRPRRPRQLTRAYWHNHRSQLFCLATYAGLHVLLFGLAASAHRDLGASVMVAKGCGQCLNFDCSFIAVLMLRRCLTWLRATWLAQVLPLDQNIQFHQLMGYVVVGLSLVHTVAHTVNFVLQAQAEASPFQFWELLLTTRPGIGWVHGSASPTGVALLLLLLLMFICSSSCIRRSGHFEVFYWTHLSYLLVWLLLIFHGPNFWKWLLVPGILFFLEKAIGLAVSRMAAVCIMEVNLLPSKVTHLLIKRPPFFHYRPGDYLYLNIPTIARYEWHPFTISSAPEQKDTIWLHIRSQGQWTNRLYESFKASDPLGRGSKRLSRSVTMRKSQRSSKGSEILLEKHKFCNIKCYIDGPYGTPTRRIFASEHAVLIGAGIGITPFASILQSIMYRHQKRKHTCPSCQHSWIEGVQDNMKLHKVDFIWINRDQRSFEWFVSLLTKLEMDQAEEAQYGRFLELHMYMTSALGKNDMKAIGLQMALDLLANKEKKDSITGLQTRTQPGRPDWSKVFQKVAAEKKGKVQVFFCGSPALAKVLKGHCEKFGFRFFQENF

The target in one experiment is T1, p22phox subunit of NADPH oxidase (mouse, endogenous) (mouse (endogenous in synoviocytes of CIA mice, BMDMs, Raw264.7)). The experiment can be described thus: co-IP; endogenous proteins, synovial fluid containing synoviocytes from CIA mice at the indicated times (also from CIA mice treated with TIPTP or vehicle); NP-40 buffer lysates, IP with anti-p22phox or anti-Rubicon, protein A/G agarose, immunoblot.
Consider “TLR4 (mouse, endogenous) (from UniProt Q9QUK6 26-835) (receptor)”, for which the binding entry was “no binding”. On the same count and under the same terms, the same measure for B1: “binds”. The same measure, in the same setting: in the case of B2 it was “binds”; in that of B3, “binds”. The same measure, in the same setting: the same measure for B4: “no binding”.

The next experiment has as its target T2, p22phox (human, endogenous) (human (endogenous in monocytes and in synoviocytes of RA patients)). Kind of experiment: co-IP; endogenous proteins, LPS-primed synoviocytes from patients with RA (or OA) treated with TIPTP, then activated with ATP; IP with anti-p22phox or anti-Rubicon, immunoblot (Fig. 6c, Supplemental Fig. 7). Background: A western blot detects proteins with antibodies after separation by electrophoresis.
With B5, the binding entry is “binds”. On the same count and under the same terms, the same measure for B6: “binds”. Same read-out and setting: in the case of B7 it was “binds”.
